Here are results for one sequence from US6017692.

Protein sequences, listed by entry. Tags and fused reporters are not part of them. Residues count along the entry.
UniProt P01106, 357-454: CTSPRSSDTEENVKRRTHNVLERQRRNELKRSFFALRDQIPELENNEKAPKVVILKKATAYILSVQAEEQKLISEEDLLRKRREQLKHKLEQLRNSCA

A weaker result is weaker than the reference pair of the same experiment.

The series has as its target c-Myc bHLH-Zip (Homo sapiens) (UniProt P01106). As to the kind of experiment: EMSA. Conditions: very small amount of complex c with 300 ng protein; 10 mM Tris pH 7.4, 80 mM NaCl, room temperature; purified recombinant protein; label: 32P 5' end. (In general: A gel shift assay detects complexes by their altered migration in electrophoresis.)

On to “GGAAGCAGACCACGTGGTCTGCTTCC (double strand) [Myc-Max consensus site oligonucleotide]”, for which the binding result is “binds more weakly”.
